This note sets out measurements from PMC3113324, “AKAP5 and AKAP12 Form Homo-oligomers” (Journal of Molecular Signaling, 2011).

Test [1] deals with His-tagged AKAP12 (840-1782) (human) (UniProt Q02952). Description: SDS-PAGE in 8 M urea; purified His-tagged proteins treated with and resolved on SDS-PAGE in the presence of 8 M urea; Coomassie staining and immunoblotting; both purified.
Test [2] addresses His-tagged human AKAP12 (human) (UniProt Q02952). Described as above.
Test [3] has as its target full-length endogenous AKAP12 (human (endogenous in HEK293)) (UniProt Q02952). Description: SDS-PAGE in 8 M urea; whole-cell lysates of HEK293 cells treated with and resolved on SDS-PAGE in the presence of 8 M urea; immunoblot with anti-HA or anti-AKAP12.
For test [4], the target named is HA-tagged full-length AKAP12 (1-1782) (human) (UniProt Q02952). The test is described as above.
Test [5] addresses His-tagged AKAP12 (1-840) (human) (UniProt Q02952). Briefly: SDS-PAGE in 8 M urea; purified His-tagged proteins treated with and resolved on SDS-PAGE in the presence of 8 M urea; Coomassie staining and immunoblotting; both purified.

No constants are given. Whether binding was seen depends on the method and setting. For some assays here: Tags and fused reporters may be left off the sequences shown.

B1: His-tagged AKAP12 (840-1782) (domain or fragment, human, UniProt Q02952 840-1782, looked up)
chain: DSDVPAVVPLSEYDAVEREKMEAQQAQKSAEQPEQKAATEVSKELSESQVHMMAAAVADGTRAATIIEERSPSWISASVTEPLEQVEAEAALLTEEVLEREVIAEEEPPTVTEPLPENREARGDTVVSEAELTPEAVTAAETAGPLGAEEGTEASAAEETTEMVSAVSQLTDSPDTTEEATPVQEVEGGVPDIEEQERRTQEVLQAVAEKVKEESQLPGTGGPEDVLQPVQRAEAERPEEQAEASGLKKETDVVLKVDAQEAKTEPFTQGKVVGQTTPESFEKAPQVTESIESSELVTTCQAETLAGVKSQEMVMEQAIPPDSVETPTDSETDGSTPVADFDAPGTTQKDEIVEIHEENEVASGTQSGGTEAEAVPAQKERPPAPSSFVFQEETKEQSKMEDTLEHTDKEVSVETVSILSKTEGTQEADQYADEKTKDVPFFEGLEGSIDTGITVSREKVTEVALKGEGTEEAECKKDDALELQSHAKSPPSPVEREMVVQVEREKTEAEPTHVNEEKLEHETAVTVSEEVSKQLLQTVNVPIIDGAKEVSSLEGSPPPCLGQEEAVCTKIQVQSSEASFTLTAAAEEEKVLGETANILETGETLEPAGAHLVLEEKSSEKNEDFAAHPGEDAVPTGPDCQAKSTPVIVSATTKKGLSSDLEGEKTTSLKWKSDEVDEQVACQEVKVSVAIEDLEPENGILELETKSSKLVQNIIQTAVDQFVRTEETATEMLTSELQTQAHVIKADSQDAGQETEKEGEEPQASAQDETPITSAKEESESTAVGQAHSDISKDMSEASEKTMTVEVEGSTVNDQQLEEVVLPSEEEGGGAGTKSVPEDDGHALLAERIEKSLVEPKEDEKGDDVDDPENQNSALADTDASGGLTKESPDTNGPKQKEKEDAQEVELQEGKVHSESDKAITPQAQEELQKQERESAKSELTES
notes: AKAP12, human, C-terminal fragment, residues 840-1782, in pET28b(+); also called C-terminal (840-1782) fragment of AKAP12; source: E. coli, purified (Ni-NTA)
Consider B1, for which, in test [1], the binding result is given as “no binding (condition: with 8 M urea)”.

B2: His-tagged human AKAP12 (natural protein, UniProt Q02952 1-1782, looked up)
chain: MGAGSSTEQRSPEQPPEGSSTPAEPEPSGGGPSAEAAPDTTADPAIAASDPATKLLQKNGQLSTINGVAEQDELSLQEGDLNGQKGALNGQGALNSQEEEEVIVTEVGQRDSEDVSKRDSDKEMATKSAVVHDITDDGQEETPEIIEQIPSSESNLEELTQPTESQANDIGFKKVFKFVGFKFTVKKDKTEKPDTVQLLTVKKDEGEGAAGAGDHKDPSLGAGEAASKESEPKQSTEKPEETLKREQSHAEISPPAESGQAVEECKEEGEEKQEKEPSKSAESPTSPVTSETGSTFKKFFTQGWAGWRKKTSFRKPKEDEVEASEKKKEQEPEKVDTEEDGKAEVASEKLTASEQAHPQEPAESAHEPRLSAEYEKVELPSEEQVSGSQGPSEEKPAPLATEVFDEKIEVHQEEVVAEVHVSTVEERTEEQKTEVEETAGSVPAEELVEMDAEPQEAEPAKELVKLKETCVSGEDPTQGADLSPDEKVLSKPPEGVVSEVEMLSSQERMKVQGSPLKKLFTSTGLKKLSGKKQKGKRGGGDEESGEHTQVPADSPDSQEEQKGESSASSPEEPEEITCLEKGLAEVQQDGEAEEGATSDGEKKREGVTPWASFKKMVTPKKRVRRPSESDKEDELDKVKSATLSSTESTASEMQEEMKGSVEEPKPEEPKRKVDTSVSWEALICVGSSKKRARRGSSSDEEGGPKAMGGDHQKADEAGKDKETGTDGILAGSQEHDPGQGSSSPEQAGSPTEGEGVSTWESFKRLVTPRKKSKSKLEEKSEDSIAGSGVEHSTPDTEPGKEESWVSIKKFIPGRRKKRPDGKQEQAPVEDAGPTGANEDDSDVPAVVPLSEYDAVEREKMEAQQAQKSAEQPEQKAATEVSKELSESQVHMMAAAVADGTRAATIIEERSPSWISASVTEPLEQVEAEAALLTEEVLEREVIAEEEPPTVTEPLPENREARGDTVVSEAELTPEAVTAAETAGPLGAEEGTEASAAEETTEMVSAVSQLTDSPDTTEEATPVQEVEGGVPDIEEQERRTQEVLQAVAEKVKEESQLPGTGGPEDVLQPVQRAEAERPEEQAEASGLKKETDVVLKVDAQEAKTEPFTQGKVVGQTTPESFEKAPQVTESIESSELVTTCQAETLAGVKSQEMVMEQAIPPDSVETPTDSETDGSTPVADFDAPGTTQKDEIVEIHEENEVASGTQSGGTEAEAVPAQKERPPAPSSFVFQEETKEQSKMEDTLEHTDKEVSVETVSILSKTEGTQEADQYADEKTKDVPFFEGLEGSIDTGITVSREKVTEVALKGEGTEEAECKKDDALELQSHAKSPPSPVEREMVVQVEREKTEAEPTHVNEEKLEHETAVTVSEEVSKQLLQTVNVPIIDGAKEVSSLEGSPPPCLGQEEAVCTKIQVQSSEASFTLTAAAEEEKVLGETANILETGETLEPAGAHLVLEEKSSEKNEDFAAHPGEDAVPTGPDCQAKSTPVIVSATTKKGLSSDLEGEKTTSLKWKSDEVDEQVACQEVKVSVAIEDLEPENGILELETKSSKLVQNIIQTAVDQFVRTEETATEMLTSELQTQAHVIKADSQDAGQETEKEGEEPQASAQDETPITSAKEESESTAVGQAHSDISKDMSEASEKTMTVEVEGSTVNDQQLEEVVLPSEEEGGGAGTKSVPEDDGHALLAERIEKSLVEPKEDEKGDDVDDPENQNSALADTDASGGLTKESPDTNGPKQKEKEDAQEVELQEGKVHSESDKAITPQAQEELQKQERESAKSELTES
notes: A-kinase-anchoring protein 12 (AKAP12, gravin, SSECKS), human, full length (1-1782), calculated MW 191.5 kDa; also called gravin; SSECKS; source: E. coli, purified by gel filtration chromatography (Superose 12)
For B2, in test [2], the binding result is recorded as “no binding (condition: with 8 M urea)”.

B3: full-length endogenous AKAP12 (natural protein, human (endogenous in HEK293), UniProt Q02952 1-1782, looked up)
chain: B2 chain
notes: AKAP12, endogenous in HEK293 cells, detected with anti-AKAP12 antibody; also called native AKAP12; endogenously expressed AKAP12; source: endogenous, HEK293 whole-cell lysate
For the molecule B3, the binding result in test [3] was “no binding (condition: with 8 M urea)”.

B4: HA-tagged full-length AKAP12 (1-1782) (natural protein, human, UniProt Q02952 1-1782, looked up)
chain: B2 chain
notes: AKAP12, human, full length (1-1782); also called HA-AKAP12; HA-tagged AKAP12; source: HEK293, transfected (pcDNA3.1), in whole-cell lysate
In the case of B4, the binding result in test [4] is “no binding (condition: with 8 M urea)”.

B5: His-tagged AKAP12 (1-840) (domain or fragment, human, UniProt Q02952 1-840, looked up)
chain: MGAGSSTEQRSPEQPPEGSSTPAEPEPSGGGPSAEAAPDTTADPAIAASDPATKLLQKNGQLSTINGVAEQDELSLQEGDLNGQKGALNGQGALNSQEEEEVIVTEVGQRDSEDVSKRDSDKEMATKSAVVHDITDDGQEETPEIIEQIPSSESNLEELTQPTESQANDIGFKKVFKFVGFKFTVKKDKTEKPDTVQLLTVKKDEGEGAAGAGDHKDPSLGAGEAASKESEPKQSTEKPEETLKREQSHAEISPPAESGQAVEECKEEGEEKQEKEPSKSAESPTSPVTSETGSTFKKFFTQGWAGWRKKTSFRKPKEDEVEASEKKKEQEPEKVDTEEDGKAEVASEKLTASEQAHPQEPAESAHEPRLSAEYEKVELPSEEQVSGSQGPSEEKPAPLATEVFDEKIEVHQEEVVAEVHVSTVEERTEEQKTEVEETAGSVPAEELVEMDAEPQEAEPAKELVKLKETCVSGEDPTQGADLSPDEKVLSKPPEGVVSEVEMLSSQERMKVQGSPLKKLFTSTGLKKLSGKKQKGKRGGGDEESGEHTQVPADSPDSQEEQKGESSASSPEEPEEITCLEKGLAEVQQDGEAEEGATSDGEKKREGVTPWASFKKMVTPKKRVRRPSESDKEDELDKVKSATLSSTESTASEMQEEMKGSVEEPKPEEPKRKVDTSVSWEALICVGSSKKRARRGSSSDEEGGPKAMGGDHQKADEAGKDKETGTDGILAGSQEHDPGQGSSSPEQAGSPTEGEGVSTWESFKRLVTPRKKSKSKLEEKSEDSIAGSGVEHSTPDTEPGKEESWVSIKKFIPGRRKKRPDGKQEQAPVEDAGPTGANEDD
notes: AKAP12, human, N-terminal fragment, residues 1-840, in pET28b(+); also called N-terminal (1-840) fragment of AKAP12; source: E. coli, purified (Ni-NTA)
B5: the binding entry in test [5] is reported as “no binding (condition: with 8 M urea)”.
